One series addresses T1, human ABCB4 (Homo sapiens, UniProt P21439).
T1 construct: expressed in transfected cells; host or cells: Abcb1KO-MDCKII (canine kidney, Abcb1 knockout), lentiviral transduction, single clone
Briefly: Inhibition of ABCB4-mediated digoxin transport, bidirectional assay in Abcb1KO-MDCKII-ABCB4 cells. To be noted: digoxin 1 µM probe. Format: cell-based.

Chains of the proteins cited; added tags and fusions are not shown. Residues count along the entry.
UniProt P21439, 1-1279 isoform P21439-2: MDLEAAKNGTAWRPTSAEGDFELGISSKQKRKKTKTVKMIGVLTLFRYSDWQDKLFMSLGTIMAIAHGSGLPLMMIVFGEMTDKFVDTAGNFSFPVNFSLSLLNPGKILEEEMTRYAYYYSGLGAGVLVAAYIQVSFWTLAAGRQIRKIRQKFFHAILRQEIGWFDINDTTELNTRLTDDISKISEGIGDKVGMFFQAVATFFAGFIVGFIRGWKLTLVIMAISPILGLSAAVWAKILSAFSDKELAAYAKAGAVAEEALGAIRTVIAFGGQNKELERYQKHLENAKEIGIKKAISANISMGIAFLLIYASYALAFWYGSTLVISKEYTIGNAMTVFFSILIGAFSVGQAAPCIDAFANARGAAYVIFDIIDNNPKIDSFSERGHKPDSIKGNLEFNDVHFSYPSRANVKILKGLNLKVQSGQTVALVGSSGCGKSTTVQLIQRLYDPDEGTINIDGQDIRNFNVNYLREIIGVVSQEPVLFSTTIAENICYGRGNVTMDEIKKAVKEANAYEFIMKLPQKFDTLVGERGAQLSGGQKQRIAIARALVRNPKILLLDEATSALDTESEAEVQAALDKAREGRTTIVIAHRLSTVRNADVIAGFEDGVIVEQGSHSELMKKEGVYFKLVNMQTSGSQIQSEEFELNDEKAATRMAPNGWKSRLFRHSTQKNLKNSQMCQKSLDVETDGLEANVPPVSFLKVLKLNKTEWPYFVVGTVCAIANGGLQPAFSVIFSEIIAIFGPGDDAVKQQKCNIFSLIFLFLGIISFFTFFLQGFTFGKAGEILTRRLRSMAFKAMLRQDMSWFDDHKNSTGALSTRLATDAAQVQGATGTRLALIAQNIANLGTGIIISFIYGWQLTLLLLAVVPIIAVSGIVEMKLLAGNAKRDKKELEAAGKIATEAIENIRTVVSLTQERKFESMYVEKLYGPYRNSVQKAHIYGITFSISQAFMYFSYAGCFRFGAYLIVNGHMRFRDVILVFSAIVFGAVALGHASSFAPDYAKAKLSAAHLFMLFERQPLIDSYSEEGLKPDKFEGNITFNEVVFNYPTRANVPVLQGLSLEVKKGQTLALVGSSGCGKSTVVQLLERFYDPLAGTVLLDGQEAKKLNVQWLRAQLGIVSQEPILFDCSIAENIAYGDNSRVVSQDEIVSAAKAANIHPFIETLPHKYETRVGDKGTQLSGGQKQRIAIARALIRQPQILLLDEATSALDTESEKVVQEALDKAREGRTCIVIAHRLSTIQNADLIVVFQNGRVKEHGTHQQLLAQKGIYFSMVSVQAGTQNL
UniProt P08183, whole entry: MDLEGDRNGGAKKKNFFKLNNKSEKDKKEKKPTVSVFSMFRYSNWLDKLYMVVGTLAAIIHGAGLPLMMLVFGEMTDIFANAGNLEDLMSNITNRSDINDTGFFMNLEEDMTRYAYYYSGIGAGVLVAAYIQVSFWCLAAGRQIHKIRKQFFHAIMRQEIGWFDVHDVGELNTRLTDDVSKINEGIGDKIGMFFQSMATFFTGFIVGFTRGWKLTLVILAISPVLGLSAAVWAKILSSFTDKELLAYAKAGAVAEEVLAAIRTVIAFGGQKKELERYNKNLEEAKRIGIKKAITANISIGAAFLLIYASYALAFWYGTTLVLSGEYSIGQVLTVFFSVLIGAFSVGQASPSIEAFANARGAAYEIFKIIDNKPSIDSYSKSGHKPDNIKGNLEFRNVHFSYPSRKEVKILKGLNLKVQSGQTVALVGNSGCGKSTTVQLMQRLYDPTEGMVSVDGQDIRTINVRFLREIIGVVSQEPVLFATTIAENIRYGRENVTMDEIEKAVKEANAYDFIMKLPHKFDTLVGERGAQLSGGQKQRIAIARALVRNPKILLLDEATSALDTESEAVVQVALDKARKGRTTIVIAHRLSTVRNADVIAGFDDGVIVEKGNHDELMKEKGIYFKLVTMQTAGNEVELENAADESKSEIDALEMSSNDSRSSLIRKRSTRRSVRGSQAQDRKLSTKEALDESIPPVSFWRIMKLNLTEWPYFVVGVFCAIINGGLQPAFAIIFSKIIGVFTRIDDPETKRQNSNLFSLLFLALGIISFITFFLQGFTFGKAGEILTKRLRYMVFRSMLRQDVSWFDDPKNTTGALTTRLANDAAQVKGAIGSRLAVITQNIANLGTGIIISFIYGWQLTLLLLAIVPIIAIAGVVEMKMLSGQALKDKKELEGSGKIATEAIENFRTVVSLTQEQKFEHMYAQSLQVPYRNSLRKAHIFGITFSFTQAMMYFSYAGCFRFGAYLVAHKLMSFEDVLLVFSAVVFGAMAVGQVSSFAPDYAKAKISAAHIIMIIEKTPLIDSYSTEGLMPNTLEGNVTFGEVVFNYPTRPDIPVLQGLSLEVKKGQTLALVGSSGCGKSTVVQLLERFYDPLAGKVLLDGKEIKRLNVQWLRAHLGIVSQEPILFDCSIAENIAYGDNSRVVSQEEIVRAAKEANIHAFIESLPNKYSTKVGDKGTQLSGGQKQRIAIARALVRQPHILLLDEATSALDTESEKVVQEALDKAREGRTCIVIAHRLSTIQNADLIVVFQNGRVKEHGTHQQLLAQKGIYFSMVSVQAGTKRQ

For series [1] the following is noted: ref FDA Liver Toxicity Knowledge Base (LTKB); cited from earlier work.
For another series, the target named is ABCB1 (Homo sapiens, UniProt P08183). To be noted: Y/N; cited from earlier work.

Data on two molecules can be found in article PMC10003010, “A Unique In Vitro Assay to Investigate ABCB4 Transport Function” (International Journal of Molecular Sciences, 2023).

The structures appear in SMILES notation.

Take `CCCCc1oc2ccccc2c1C(=O)c1cc(I)c(OCCN(CC)CC)c(I)c1` [amiodarone]: at human ABCB4, the “Effect on ABCB4-mediated digoxin transport, in words” value was “no effect”. The “DILI Concern” value in series [1] is given as “Most DILI concern”.
In the case of `NS(=O)(=O)c1cc(C(=O)O)c(NCc2ccco2)cc1Cl` [furosemide], the “ABCB1 Interactor” value on ABCB1 was “Conflicting information [65]”.
